This is an account of results in article PMC3479024.

Chains of the proteins cited; added tags and fusions are not shown. Lines headed by an entry give the natural chain unless they say otherwise; changes in a name come on top.
UniProt Q07817: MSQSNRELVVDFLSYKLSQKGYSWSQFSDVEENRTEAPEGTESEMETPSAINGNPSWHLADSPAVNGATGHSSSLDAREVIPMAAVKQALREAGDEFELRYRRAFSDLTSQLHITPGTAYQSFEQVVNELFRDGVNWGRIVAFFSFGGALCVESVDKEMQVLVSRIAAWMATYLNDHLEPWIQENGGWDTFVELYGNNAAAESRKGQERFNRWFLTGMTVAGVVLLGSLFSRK
UniProt Q99497: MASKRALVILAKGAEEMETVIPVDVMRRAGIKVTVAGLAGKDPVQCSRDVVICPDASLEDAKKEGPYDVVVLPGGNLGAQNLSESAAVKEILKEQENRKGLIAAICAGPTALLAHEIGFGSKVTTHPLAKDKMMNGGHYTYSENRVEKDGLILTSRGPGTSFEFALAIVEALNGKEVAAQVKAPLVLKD

The target of assay [1] is GST-Bcl-XL (human) (UniProt Q07817). Description: pull-down; competitive binding: supernatant with 50 μg His-Bax or Bcl2 incubated with 20 μg GST or GST-Bcl-XL on glutathione-agarose beads, washed, then incubated with various amounts of His-DJ-1(L166P) supernatant; immunoblot; only the target purified. For orientation: Immunoblotting shows a protein as a band on a membrane.

In assay [2] the target is GST-DJ-1 (human) (UniProt Q99497). As to the kind of experiment: pull-down; 20 μg GST, GST-DJ-1 or GST-DJ-1(L166P) on glutathione-agarose beads; supernatant of E. coli crude extract with 50 μg recombinant Bcl-XL; 2 hours at 4°C; washed with HNTG buffer (20 mM Hepes-KOH pH 7.5, 100 mM NaCl, 0.1% Triton X-100, 10% glycerol); immunoblot; only the target purified.
Assay [3] concerns the target GST-DJ-1(L166P) (human) (UniProt Q99497). The description is as above.

No constants are given. Whether binding was seen depends on the method and setting. Binding seen in cells or lysates may run through a third protein. Binding can be weak; no strength is given.

Regarding “His-DJ-1(L166P) (from UniProt Q99497 1-189)”, in assay [1], the binding entry is “binds”.
Take “recombinant Bcl-XL (from UniProt Q07817-1)”: the binding entry in assay [2] and in assay [3] was “binds” throughout.
